Reference: the supplement of paper PMC10849652
The other results are listed elsewhere or left out.

By UniProt entry, the sequences of proteins in these tests, tags left out. Where a name states a change or a piece, a line headed by the entry shows the natural chain unless it says otherwise.
UniProt Q8WVL7: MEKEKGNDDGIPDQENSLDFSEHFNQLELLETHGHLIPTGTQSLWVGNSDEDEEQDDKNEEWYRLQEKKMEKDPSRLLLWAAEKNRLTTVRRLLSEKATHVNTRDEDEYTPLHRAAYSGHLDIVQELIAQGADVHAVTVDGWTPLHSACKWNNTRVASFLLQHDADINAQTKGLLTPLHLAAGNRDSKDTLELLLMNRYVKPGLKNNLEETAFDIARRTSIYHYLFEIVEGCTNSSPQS
UniProt Q10567: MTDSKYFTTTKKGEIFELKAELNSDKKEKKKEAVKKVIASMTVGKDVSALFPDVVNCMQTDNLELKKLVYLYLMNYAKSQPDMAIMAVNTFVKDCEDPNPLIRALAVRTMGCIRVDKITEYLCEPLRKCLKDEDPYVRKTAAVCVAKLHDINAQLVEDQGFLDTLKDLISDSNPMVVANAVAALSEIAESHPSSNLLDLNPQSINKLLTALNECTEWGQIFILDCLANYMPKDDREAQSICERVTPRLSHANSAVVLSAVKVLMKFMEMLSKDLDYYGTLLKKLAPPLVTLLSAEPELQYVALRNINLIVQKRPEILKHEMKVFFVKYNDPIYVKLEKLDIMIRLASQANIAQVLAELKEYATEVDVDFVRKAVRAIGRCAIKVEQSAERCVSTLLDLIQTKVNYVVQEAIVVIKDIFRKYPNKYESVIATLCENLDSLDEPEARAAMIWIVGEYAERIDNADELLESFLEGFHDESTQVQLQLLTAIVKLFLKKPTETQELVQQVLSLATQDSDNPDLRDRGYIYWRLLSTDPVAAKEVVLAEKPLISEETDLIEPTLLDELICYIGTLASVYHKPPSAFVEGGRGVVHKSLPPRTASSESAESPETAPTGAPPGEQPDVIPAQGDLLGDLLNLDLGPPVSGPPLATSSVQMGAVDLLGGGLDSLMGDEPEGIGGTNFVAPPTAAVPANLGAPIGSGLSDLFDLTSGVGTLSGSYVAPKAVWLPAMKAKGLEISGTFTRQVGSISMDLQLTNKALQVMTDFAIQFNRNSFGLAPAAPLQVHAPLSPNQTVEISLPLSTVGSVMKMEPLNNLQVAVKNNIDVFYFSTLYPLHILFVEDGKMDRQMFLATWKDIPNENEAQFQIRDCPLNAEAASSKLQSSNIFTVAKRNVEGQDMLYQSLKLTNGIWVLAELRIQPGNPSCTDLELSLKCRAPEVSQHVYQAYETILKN
UniProt P50995, whole entry, looked up: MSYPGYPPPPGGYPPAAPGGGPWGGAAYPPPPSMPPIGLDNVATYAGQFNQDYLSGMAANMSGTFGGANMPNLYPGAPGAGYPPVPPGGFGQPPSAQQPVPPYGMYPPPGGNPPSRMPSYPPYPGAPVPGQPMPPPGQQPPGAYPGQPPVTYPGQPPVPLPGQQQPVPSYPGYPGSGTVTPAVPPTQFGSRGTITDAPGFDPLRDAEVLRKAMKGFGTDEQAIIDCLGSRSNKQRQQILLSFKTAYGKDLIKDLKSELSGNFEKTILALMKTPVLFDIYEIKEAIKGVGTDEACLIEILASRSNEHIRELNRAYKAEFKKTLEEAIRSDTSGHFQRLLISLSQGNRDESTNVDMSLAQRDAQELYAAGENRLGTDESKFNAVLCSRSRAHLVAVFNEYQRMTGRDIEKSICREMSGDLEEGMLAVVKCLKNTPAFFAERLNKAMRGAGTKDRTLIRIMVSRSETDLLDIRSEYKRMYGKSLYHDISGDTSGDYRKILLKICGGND
UniProt P16157: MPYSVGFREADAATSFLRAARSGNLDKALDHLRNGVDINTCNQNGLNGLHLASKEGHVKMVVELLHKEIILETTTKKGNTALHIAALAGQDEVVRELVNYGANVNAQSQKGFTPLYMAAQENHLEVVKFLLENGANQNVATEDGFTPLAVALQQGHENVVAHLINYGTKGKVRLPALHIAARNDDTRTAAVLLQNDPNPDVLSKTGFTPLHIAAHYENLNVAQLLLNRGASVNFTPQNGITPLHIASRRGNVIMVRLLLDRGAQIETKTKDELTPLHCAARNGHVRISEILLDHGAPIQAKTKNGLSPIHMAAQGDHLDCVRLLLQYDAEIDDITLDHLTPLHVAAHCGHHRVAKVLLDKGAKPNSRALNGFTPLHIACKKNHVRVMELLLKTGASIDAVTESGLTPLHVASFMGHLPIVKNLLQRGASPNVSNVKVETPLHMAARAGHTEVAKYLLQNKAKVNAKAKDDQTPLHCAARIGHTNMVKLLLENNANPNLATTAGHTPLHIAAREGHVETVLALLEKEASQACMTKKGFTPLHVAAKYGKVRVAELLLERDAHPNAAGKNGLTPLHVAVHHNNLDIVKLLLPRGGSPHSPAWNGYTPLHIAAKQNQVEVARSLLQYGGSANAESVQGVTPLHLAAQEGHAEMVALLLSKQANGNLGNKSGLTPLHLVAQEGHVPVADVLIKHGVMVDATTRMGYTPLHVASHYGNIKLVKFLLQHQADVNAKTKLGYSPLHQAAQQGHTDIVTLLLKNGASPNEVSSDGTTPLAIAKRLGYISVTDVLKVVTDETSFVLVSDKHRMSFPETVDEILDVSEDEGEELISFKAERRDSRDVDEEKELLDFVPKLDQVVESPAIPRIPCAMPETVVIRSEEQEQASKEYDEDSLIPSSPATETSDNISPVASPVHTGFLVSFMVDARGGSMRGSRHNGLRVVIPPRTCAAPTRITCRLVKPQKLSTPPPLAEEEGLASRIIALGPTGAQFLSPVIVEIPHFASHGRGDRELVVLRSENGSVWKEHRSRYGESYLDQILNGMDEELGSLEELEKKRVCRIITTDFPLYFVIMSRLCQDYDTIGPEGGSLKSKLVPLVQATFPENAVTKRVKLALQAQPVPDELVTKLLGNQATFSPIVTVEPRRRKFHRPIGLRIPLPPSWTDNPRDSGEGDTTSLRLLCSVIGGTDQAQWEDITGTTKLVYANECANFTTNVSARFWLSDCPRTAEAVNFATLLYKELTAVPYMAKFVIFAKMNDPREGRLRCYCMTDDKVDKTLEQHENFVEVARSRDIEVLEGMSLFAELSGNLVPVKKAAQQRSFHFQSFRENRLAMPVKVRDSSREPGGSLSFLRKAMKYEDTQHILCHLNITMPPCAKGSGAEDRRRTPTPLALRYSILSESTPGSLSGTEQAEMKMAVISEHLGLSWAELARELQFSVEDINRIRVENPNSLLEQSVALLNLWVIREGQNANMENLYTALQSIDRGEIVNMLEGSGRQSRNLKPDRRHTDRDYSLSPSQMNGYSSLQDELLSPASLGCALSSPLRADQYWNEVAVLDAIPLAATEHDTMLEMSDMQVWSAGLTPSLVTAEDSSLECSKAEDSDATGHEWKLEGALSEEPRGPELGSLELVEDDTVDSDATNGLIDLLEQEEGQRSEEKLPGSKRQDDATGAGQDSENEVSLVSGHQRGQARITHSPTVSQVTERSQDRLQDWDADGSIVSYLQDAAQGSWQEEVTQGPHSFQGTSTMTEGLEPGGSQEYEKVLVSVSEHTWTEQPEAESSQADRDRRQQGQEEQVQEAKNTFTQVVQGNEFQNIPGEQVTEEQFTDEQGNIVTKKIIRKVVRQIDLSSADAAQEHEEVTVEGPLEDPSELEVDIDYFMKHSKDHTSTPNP
UniProt P08758: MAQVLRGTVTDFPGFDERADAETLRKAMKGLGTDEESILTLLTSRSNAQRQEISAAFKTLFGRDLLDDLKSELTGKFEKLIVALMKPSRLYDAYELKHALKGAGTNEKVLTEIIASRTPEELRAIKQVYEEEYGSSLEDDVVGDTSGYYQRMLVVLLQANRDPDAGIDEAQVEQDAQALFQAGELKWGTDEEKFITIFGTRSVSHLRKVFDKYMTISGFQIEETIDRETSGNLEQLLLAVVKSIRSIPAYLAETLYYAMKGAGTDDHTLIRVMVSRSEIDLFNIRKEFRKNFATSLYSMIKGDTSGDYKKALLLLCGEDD
UniProt P58335, whole entry, looked up: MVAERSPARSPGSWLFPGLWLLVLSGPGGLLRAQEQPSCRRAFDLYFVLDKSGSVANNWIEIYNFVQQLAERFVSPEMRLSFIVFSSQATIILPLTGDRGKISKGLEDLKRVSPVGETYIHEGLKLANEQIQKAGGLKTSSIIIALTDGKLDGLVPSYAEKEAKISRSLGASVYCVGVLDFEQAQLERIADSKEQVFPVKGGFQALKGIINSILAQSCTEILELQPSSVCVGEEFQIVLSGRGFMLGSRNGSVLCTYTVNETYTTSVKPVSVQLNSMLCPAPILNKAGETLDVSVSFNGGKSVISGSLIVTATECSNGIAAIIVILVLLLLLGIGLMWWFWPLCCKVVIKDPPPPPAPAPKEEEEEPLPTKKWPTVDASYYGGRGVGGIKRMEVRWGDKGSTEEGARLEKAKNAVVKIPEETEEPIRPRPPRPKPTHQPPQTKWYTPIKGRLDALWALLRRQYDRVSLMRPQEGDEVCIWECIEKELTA
UniProt Q02252: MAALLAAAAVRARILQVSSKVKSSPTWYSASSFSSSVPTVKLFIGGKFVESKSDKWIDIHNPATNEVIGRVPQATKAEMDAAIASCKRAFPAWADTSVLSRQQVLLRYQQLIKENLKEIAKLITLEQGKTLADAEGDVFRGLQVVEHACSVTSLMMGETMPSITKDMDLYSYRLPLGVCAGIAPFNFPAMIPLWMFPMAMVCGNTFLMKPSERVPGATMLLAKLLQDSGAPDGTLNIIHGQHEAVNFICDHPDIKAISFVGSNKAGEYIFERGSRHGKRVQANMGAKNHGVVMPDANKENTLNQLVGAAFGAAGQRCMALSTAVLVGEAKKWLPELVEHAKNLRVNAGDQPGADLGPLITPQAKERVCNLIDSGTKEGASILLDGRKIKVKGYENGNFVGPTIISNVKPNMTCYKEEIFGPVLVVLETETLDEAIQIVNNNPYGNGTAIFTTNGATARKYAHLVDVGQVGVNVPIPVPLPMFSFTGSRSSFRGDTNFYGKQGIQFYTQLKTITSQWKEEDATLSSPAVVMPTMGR
UniProt Q96Q42: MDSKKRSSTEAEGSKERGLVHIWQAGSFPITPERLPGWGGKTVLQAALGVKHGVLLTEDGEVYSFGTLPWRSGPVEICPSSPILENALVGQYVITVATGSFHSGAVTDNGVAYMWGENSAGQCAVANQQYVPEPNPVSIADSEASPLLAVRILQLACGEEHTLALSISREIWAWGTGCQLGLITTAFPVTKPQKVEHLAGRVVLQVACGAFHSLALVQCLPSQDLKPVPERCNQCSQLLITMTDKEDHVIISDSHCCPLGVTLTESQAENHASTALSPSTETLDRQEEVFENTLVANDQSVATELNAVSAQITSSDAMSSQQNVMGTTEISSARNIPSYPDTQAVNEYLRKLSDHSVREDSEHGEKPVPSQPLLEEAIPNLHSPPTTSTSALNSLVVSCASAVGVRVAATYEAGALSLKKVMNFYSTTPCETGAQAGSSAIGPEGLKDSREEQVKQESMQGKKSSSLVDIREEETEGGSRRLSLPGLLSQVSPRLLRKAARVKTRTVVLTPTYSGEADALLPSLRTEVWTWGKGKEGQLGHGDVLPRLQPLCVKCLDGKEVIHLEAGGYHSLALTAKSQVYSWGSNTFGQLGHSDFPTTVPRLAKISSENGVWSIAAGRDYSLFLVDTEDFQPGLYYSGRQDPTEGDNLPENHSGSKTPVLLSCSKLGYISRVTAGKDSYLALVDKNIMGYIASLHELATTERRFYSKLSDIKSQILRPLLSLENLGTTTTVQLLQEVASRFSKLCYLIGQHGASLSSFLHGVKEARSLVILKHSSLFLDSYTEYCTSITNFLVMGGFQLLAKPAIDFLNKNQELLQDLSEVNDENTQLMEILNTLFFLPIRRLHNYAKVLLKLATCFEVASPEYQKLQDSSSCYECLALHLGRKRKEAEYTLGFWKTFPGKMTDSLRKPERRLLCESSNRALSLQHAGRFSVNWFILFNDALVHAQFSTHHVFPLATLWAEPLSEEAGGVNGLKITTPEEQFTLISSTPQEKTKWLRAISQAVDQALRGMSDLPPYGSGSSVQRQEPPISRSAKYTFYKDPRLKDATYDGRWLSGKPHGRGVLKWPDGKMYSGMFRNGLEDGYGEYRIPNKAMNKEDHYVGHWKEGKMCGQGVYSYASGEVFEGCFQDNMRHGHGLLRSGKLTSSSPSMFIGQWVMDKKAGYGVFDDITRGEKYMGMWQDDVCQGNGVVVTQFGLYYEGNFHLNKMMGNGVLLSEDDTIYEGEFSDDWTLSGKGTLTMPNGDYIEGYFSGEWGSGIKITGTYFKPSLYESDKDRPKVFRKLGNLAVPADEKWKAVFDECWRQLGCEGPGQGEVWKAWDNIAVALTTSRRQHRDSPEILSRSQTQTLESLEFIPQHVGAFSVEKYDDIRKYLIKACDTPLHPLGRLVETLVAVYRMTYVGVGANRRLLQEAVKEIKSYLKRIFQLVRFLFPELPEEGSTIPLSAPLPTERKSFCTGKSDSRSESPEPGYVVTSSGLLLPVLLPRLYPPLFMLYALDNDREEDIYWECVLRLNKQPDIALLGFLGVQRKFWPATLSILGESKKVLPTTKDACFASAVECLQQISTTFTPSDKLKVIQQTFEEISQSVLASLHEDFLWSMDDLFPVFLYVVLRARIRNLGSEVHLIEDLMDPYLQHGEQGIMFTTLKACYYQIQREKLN

Experiments:
Test in all cases: log2 fold change, soluble protein after heating vs DMSO (PISA); higher = thermal stabilisation; K562 lysate, 10 uM; active = over 0.2 and 3.5 SD of the protein, either way, in both replicates (recomputed)
erlotinib = compound: C#Cc1cccc(Nc2ncnc3cc(OCCOC)c(OCCOC)cc23)c1 [erlotinib]
How it was run: (§1)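 Pellets of K562 cells were dounce-homogenised in PBS pH 7.4 with 1 mM MgCl2, and the crude extract was held at 1 mg/mL protein for a 30 min treatment with 10 μM compound. Aliquots were heated for 3 min over 48°C-58°C and pooled before NP-40 was added to 0.5% at 4°C. The supernatant from 21,000xg for 90 min was quantified by TMTpro 16plex LC-MS/MS with channel sums equalised. Values are reported from duplicates as log-two fold change in thermal stability relative to solvent controls.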

[1] = compound: C/C(=N\NC(=O)C1=CC(=CC=C1)S(=O)(=O)N2CCOCC2)/C3=C(C=CC(=C3)Cl)O
How it was run: as §1

[2] = compound: C1=CC(=CC=C1C2=NC3=C(N2)C=C(C=C3)C(=O)N)OC4=CC=C(C=C4)Cl
How it was run: as §1

[3] = compound: C1=CC2=C(C=CC(=C2)/C=C\3/C(=O)NC(=NCC4=CC=CS4)S3)N=C1
How it was run: as §1

[4] = compound: C1=CC2=NC=CN=C2C=C1/C=C/3\C(=O)NC(=O)S3
How it was run: as §1

[5] = compound: C1=CC=C(C=C1)C2=NC(=C(N2)C3=CC=NC=C3)C4=CC(=C(C=C4)Cl)O
How it was run: as §1

[6] = compound: C1=CC=C2C(=C1)C3=NNC4=CC=CC(=C43)C2=O
How it was run: as §1

[7] = compound: C1CCN(C1)C(=O)NC2=CC=CC(=C2)NC3=NC=C(C(=N3)NCCC4=CN=CN4)Br
How it was run: as §1

[8] = compound: C1CN(CCC1(CC2=CC=C(C=C2)Cl)N)C3=NC=NC4=C3C=CN4
How it was run: as §1

IRAK-1-4 Inhibitor I = compound: C1COCCN1CCN2C3=CC=CC=C3N=C2NC(=O)C4=CC(=CC=C4)[N+](=O)[O-] [IRAK-1-4 Inhibitor I]
How it was run: as §1

Measured: log2 fold change

ANKRD49 (UniProt Q8WVL7)
inactive: erlotinib 0.021 | [1] 0.03 | [2] 0.016 | [3] 0.033 | [4] 0.031 | [5] -0.028 | [6] 0.035 | [7] 0.024 | [8] -0.02 | IRAK-1-4 Inhibitor I 0.003

ALG6 (UniProt Q9Y672)
inactive: erlotinib 0.07 | [1] 0.114 | [2] 0.011 | [3] 0.071 | [4] 0.023 | [5] 0 | [6] -0.28 | [7] 0.003 | [8] -0.084 | IRAK-1-4 Inhibitor I 0.084

AP1B1 (UniProt Q10567)
inactive: erlotinib -0.002 | [1] 0 | [2] -0.011 | [3] 0.017 | [4] -0.003 | [5] 0.016 | [6] 0.027 | [7] 0.003 | [8] 0.003 | IRAK-1-4 Inhibitor I 0.018

ALDOA (UniProt P04075)
inactive: erlotinib -0.014 | [1] 0.038 | [2] 0.024 | [3] -0.016 | [4] -0.008 | [5] -0.003 | [6] 0.02 | [7] 0.006 | [8] -0.018 | IRAK-1-4 Inhibitor I 0.015

ANK3 (UniProt Q12955)
inactive: erlotinib -0.002 | [1] 0.02 | [2] -0.007 | [3] 0.034 | [4] 0.006 | [5] -0.055 | [6] -0.011 | [7] -0.002 | [8] 0.011 | IRAK-1-4 Inhibitor I -0.002

ANXA11 (UniProt P50995)
inactive: erlotinib 0.015 | [1] 0.031 | [2] 0.025 | [3] -0.022 | [4] 0.017 | [5] -0.079 | [6] -0.016 | [7] 0.011 | [8] 0.033 | IRAK-1-4 Inhibitor I 0.006

ANP32B (UniProt Q92688)
inactive: erlotinib -0.03 | [1] 0.009 | [2] 0.01 | [3] -0.023 | [4] 0.014 | [5] -0.024 | [6] 0.031 | [7] 0.001 | [8] -0.016 | IRAK-1-4 Inhibitor I -0.007

ALYREF (UniProt Q86V81)
inactive: erlotinib -0.042 | [1] -0.107 | [2] -0.023 | [3] 0.042 | [4] 0.041 | [5] 0.038 | [6] 0.058 | [7] -0.009 | [8] 0.012 | IRAK-1-4 Inhibitor I -0.012

Taken from above (2 entries):
ANP32B (UniProt Q92688)
inactive: erlotinib -0.03 | [1] 0.009 | [2] 0.01 | [3] -0.023 | [4] 0.014 | [5] -0.024 | [6] 0.031 | [7] 0.001 | [8] -0.016 | IRAK-1-4 Inhibitor I -0.007

ALYREF (UniProt Q86V81)
inactive: erlotinib -0.042 | [1] -0.107 | [2] -0.023 | [3] 0.042 | [4] 0.041 | [5] 0.038 | [6] 0.058 | [7] -0.009 | [8] 0.012 | IRAK-1-4 Inhibitor I -0.012

Going on with the list.

ALDH2 (UniProt P05091)
inactive: erlotinib -0.048 | [1] 0.009 | [2] -0.062 | [3] 0.03 | [4] 0.042 | [5] -0.016 | [6] 0.175 | [7] 0.011 | [8] 0.023 | IRAK-1-4 Inhibitor I 0.003

ANK1 isoform 14 (UniProt P16157)
inactive: erlotinib 0.001 | [1] -0.002 | [2] -0.031 | [3] 0.028 | [4] 0.039 | [5] 0.026 | [6] -0.015 | [7] 0.002 | [8] 0.011 | IRAK-1-4 Inhibitor I 0.01

ANO6 (UniProt Q4KMQ2)
inactive: erlotinib -0.002 | [1] 0.039 | [2] -0.05 | [3] -0.019 | [4] -0.022 | [5] -0.013 | [6] -0.019 | [7] -0.036 | [8] -0.009 | IRAK-1-4 Inhibitor I 0.01

ALKBH4 (UniProt Q9NXW9)
inactive: erlotinib 0.014 | [1] -0.073 | [2] 0.026 | [3] -0.011 | [4] 0.017 | [5] -0.052 | [6] -0.069 | [7] 0 | [8] 0.019 | IRAK-1-4 Inhibitor I 0.003

ANXA5 (UniProt P08758)
inactive: erlotinib -0.011 | [1] -0.001 | [2] -0.024 | [3] 0.014 | [4] -0.016 | [5] -0.023 | [6] 0.009 | [7] -0.003 | [8] -0.049 | IRAK-1-4 Inhibitor I -0.03

ANTXR2 isoform 4 (UniProt P58335)
inactive: erlotinib -0.032 | [1] -0.032 | [2] 0.031 | [3] 0.01 | [4] 0.013 | [5] -0.036 | [6] 0.013 | [7] -0.007 | [8] 0.011 | IRAK-1-4 Inhibitor I 0.012

AP3B1 (UniProt O00203)
inactive: erlotinib -0.024 | [1] -0.001 | [2] 0.002 | [3] 0.021 | [4] -0.029 | [5] -0.001 | [6] -0.024 | [7] -0.014 | [8] -0.005 | IRAK-1-4 Inhibitor I -0.025

ANKRD13A (UniProt Q8IZ07)
inactive: erlotinib -0.009 | [1] -0.018 | [2] 0.018 | [3] 0.041 | [4] -0.002 | [5] -0.004 | [6] -0.01 | [7] -0.001 | [8] 0.026 | IRAK-1-4 Inhibitor I 0.007

ANKRD17 (UniProt O75179)
inactive: erlotinib 0.015 | [1] -0.087 | [2] 0.022 | [3] -0.01 | [4] -0.008 | [5] -0.035 | [6] -0.032 | [7] -0.027 | [8] -0.033 | IRAK-1-4 Inhibitor I -0.021

ALDH6A1 (UniProt Q02252)
inactive: erlotinib -0.03 | [1] 0.064 | [2] -0.04 | [3] -0.068 | [4] -0.179 | [5] 0.043 | [6] -0.031 | [7] -0.022 | [8] 0.015 | IRAK-1-4 Inhibitor I 0.024

ALS2 (UniProt Q96Q42)
inactive: erlotinib 0.013 | [1] 0.063 | [2] -0.104 | [3] -0.021 | [4] 0.078 | [5] -0.033 | [6] 0.072 | [7] 0.024 | [8] 0.052 | IRAK-1-4 Inhibitor I 0.009
